These are yes or no findings as the source states them, for the method shown. Binding seen in cells or lysates may run through a third protein. Some entries that bind do so weakly or less than the wild type.
Target: T1, ATAD3A, transfected in HEK293T cells (UniProt Q9NVI7)
T1 sequence: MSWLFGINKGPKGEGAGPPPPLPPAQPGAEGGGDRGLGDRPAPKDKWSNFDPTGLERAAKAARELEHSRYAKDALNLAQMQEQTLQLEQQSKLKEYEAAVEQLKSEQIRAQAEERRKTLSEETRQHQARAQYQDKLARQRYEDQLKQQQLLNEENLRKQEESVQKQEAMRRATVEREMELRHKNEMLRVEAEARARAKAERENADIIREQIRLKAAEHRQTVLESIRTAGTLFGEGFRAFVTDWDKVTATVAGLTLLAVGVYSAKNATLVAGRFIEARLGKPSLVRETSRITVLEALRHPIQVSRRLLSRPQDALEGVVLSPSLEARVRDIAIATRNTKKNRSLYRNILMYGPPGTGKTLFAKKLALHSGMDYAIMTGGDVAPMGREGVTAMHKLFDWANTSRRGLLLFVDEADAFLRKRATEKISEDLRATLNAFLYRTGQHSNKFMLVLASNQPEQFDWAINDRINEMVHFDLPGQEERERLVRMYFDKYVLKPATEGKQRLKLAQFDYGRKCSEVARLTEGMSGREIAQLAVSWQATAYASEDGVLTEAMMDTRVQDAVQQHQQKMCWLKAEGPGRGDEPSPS
Assay: co-IP; HEK293T cells cotransfected with ATAD3A and pEGFP-MUC1-CD or pEGFP-MUC1-CD-AQA; lysates subjected to denatured co-IP

By UniProt entry, the sequences of proteins in these tests, tags left out. Residues count along the entry.
UniProt P15941, residues 1182-1255: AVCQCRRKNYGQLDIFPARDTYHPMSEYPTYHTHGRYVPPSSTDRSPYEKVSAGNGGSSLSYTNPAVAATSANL

“GFP-MUC1-CD (from UniProt P15941 1182-1255) (domain or fragment)” was tested, and the binding was “binds”.

— publication PMC9606306
